# Measurements: PubChem BioAssay AID445 (National Center for Advancing Translational Sciences (NCATS), 2006)
# Some of the results follow. These are further read-outs of the screen, such as a control signal, another cell line or another target. No call is given for them. Compounds called inactive in the main read-out are mostly missing here. The note in brackets gives the kind of curve behind each potency; many fits are weak.
# Experiment: IkB Signaling
# Details: ABC-DLBCL IkBa-CBG/CBR dual luciferase ratio (green luciferase fused to IkBa over red control in OCI-Ly3 lymphoma cells), 4 h; measured here: control luc red channel unless noted
# Outline: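 In this assay, an IκBα–CBG68 fusion accumulates when IKK-driven degradation is blocked; native CBR normalizes for cell number. OCI-Ly3 cells were treated 4 h with compound and doxycycline, then green and red light read after Chroma-Glo addition.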
row,Structure (SMILES),AC50
1,CCOC(=O)c1c(C)[nH]c(C)c1S(=O)(=O)N1CCCC(C(=O)Nc2ccc(OC)c(OC)c2)C1 (configuration not stated),"39.8 µM [rising, single point]"
2,CC(C)c1ccc(NC(=O)c2cc(S(=O)(=O)NC3CCCCC3)ccc2F)cc1,"31.6 µM [falling, partial curve, poor fit]"
3,Cc1cccc(NC(=O)CN(C)S(=O)(=O)c2cccc3cccnc23)c1,"15.8 µM [falling, partial curve]"
4,COC(=O)c1cc(C)nc2c1c(=O)nc(SCc1cccc(C(F)(F)F)c1)n2C1CC1,"39.8 µM [falling, single point]"
5,O=C(C1CCC(CNS(=O)(=O)c2cccs2)CC1)N1CCN(c2ccc(Cl)cc2)CC1 (configuration not stated),"10 µM [falling, partial curve]"
6,COc1ccc(CCNC(=O)Cn2c(=O)nc(-c3ccccc3F)c3cc(Cl)ccc32)cc1OC,"20 µM [falling, partial curve]"
7,CCCn1c(SCC(O)c2cccc(OC)c2)nc2ccccc21 (configuration not stated),"3.16 µM [falling, partial curve]"
8,Cc1ccc2c(c1)NC(=O)C(CC(=O)NCCCN1CCN(c3cc(Cl)ccc3C)CC1)O2 (configuration not stated),"15.8 µM [falling, partial curve]"
9,COc1cc(NCCCC(C)N)c2ncccc2c1 (configuration not stated),"15.8 µM [falling, partial curve]"
10,Cc1cnc(C)c(N2CCC(C(=O)NCc3cccs3)CC2)n1,"10 nM [rising, full curve] [measured here: IkB-luc green channel]"
11,Cc1ccc(C)c(CN2CCCN(Cc3cc(C)ccc3C)S2(=O)=O)c1,"39.8 µM [falling, single point]"
12,CCc1nc2ccccc2n1CCCCOc1ccccc1C,"25.1 µM [falling, single point]"
13,COc1cc2cc(C(c3nnnn3C3CCCC3)N(C)C3CCCCC3)c(=O)[nH]c2cc1OC (configuration not stated),"31.6 µM [falling, single point] [measured here: IkB-luc green channel]"
14,CC(Nc1nc(N2CCCC2)nc2ccccc12)c1ccccc1 (configuration not stated),"15.8 µM [falling, partial curve]"
15,COc1cc2c(cc1NC(=O)CN(C)Cc1nc3ccccc3c(=O)[nH]1)oc1ccccc12,"12.6 µM [falling, partial curve]"
16,CCCOc1cccc(C(=O)Nc2ccc(-c3nc4ccccc4s3)c(Cl)c2)c1,"12.6 µM [falling, partial curve]"
17,CCN1C(C(=O)c2ccccc2)=C(OC(=O)C(C)C)c2ccccc2S1(=O)=O,"15.8 µM [falling, partial curve]"

# Quoted from the listing:
# AC50 with Cc1ccc2c(c1)NC(=O)C(CC(=O)NCCCN1CCN(c3cc(Cl)ccc3C)CC1)O2 (configuration not stated) reads 15.8 µM [falling, partial curve]
# AC50 with CCCn1c(SCC(O)c2cccc(OC)c2)nc2ccccc21 (configuration not stated) reads 3.16 µM [falling, partial curve]
